Laboratory results: PubChem BioAssay AID493014 (National Center for Advancing Translational Sciences (NCATS), 2011)
In all, about 340,000 compounds went through this assay and about 170 (0.05%) were called active. Inconclusive results, whose numbers are uncertain, are shown with a selection of clear calls. Calls come from the whole dose curve; as a rule, active = well fitted inhibition curve with a large enough effect in the signal ratio, with a control signal flat (not every such curve was filed as active); inconclusive = small, poorly fitted or top-dose-only effect, or effect the other way, or a change in a side signal; inactive = flat fitted curve, though single readings scatter; the % refers to the signal ratio. Potencies of inconclusive entries are doubtful fits and often do not repeat.

assay: qHTS Assay to Find Inhibitors of Chronic Active B-Cell Receptor Signaling; settings: ABC-DLBCL IkBa-CBG/CBR reporter, luminescence ratio (green luciferase fused to IkBa over red control in TMD8 lymphoma cells), 4 h; activity change, negative = inhibition: at 46.1 µM (top of the series) unless noted;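 for activity change, negative = inhibition: plate controls were basal doxycycline-induced cells for no effect and cells given 10 µM MG132 for full effect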
Method in brief: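 Doxycycline induced both beetle luciferases in TMD8 lymphoma cells; IKK-driven degradation limits the IkappaBalpha-fused green signal, while red luminescence normalises for cell number and nonspecific effects. Compounds tested up to 46 uM, 4 hrs.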
Potency is the fitted concentration of half-maximal effect.

Structure (SMILES)	activity change, negative = inhibition	Potency
Cc1ccc2nc(-c3cccnc3)cc(C(=O)N3CCN(c4ccc([N+](=O)[O-])cc4)CC3)c2c1	inactive	–
O=C(Nc1ccc2ccccc2c1)c1ccccc1F	–	inconclusive: 31.6 µM [falling, single point]
Cc1cccn2cc(-c3ccc(F)cc3)nc12	inactive	–
O=C(CN1C(=O)S/C(=C/c2ccncc2)C1=O)Nc1ccccc1	–	inconclusive: 35.5 µM [falling, single point]
CC(C)c1cc(C(F)(F)F)n2nc(C(=O)O)cc2n1	inconclusive: 5.2%	–
C1=C(c2cc3ccccc3cn2)CCCC1	inconclusive: -0.834%	–
Cc1ccc(S(=O)(=O)NCCN2CCOCC2)c(C)c1C	inconclusive: 9.3%	–
Cc1ccc(C(=O)C2=C(O)C(=O)N(c3ncccn3)C2c2cccc(Cl)c2)o1 (centres undefined)	inactive	–
Cc1cccc(/C=N/Nc2ccc3ccccc3n2)c1	inconclusive: 207%	–
CN(C(=O)CC(NC(=O)c1ccccc1)(c1ccccc1)c1ccccc1)c1ccccc1	inconclusive: -6.28%	–
Cc1nnsc1C(=O)Nc1cccc(Cl)c1Cl	–	inconclusive: 29.1 µM [falling, single point]
Cc1ccc(OCC(=O)NCCC2=CCCCC2)cc1	inconclusive: 6.08%	–
Cc1c(C(=O)N2CCCCC2C)sc2ncnc(N3CCc4ccccc4C3)c12 (centres undefined)	inconclusive: 15.3%	–
CCCCn1c(N)c(N(CC(C)C)C(=O)CN2C(=O)C3CCCCC3C2=O)c(=O)[nH]c1=O (centres undefined)	inconclusive: -17.2%	–
COc1ccc(/C=C/C(=O)c2ccc(NC(=O)c3cccs3)cc2)cc1OC	–	inconclusive: 18.4 µM [falling, single point]
COc1ccccc1CN1CCCC(CN(CCN(C)C)C(=O)C2CCCC2)C1 (centres undefined)	inactive	–
Cc1ccc(S(=O)(=O)Nc2ccc(-n3c(C)nc4ccccc4c3=O)cc2)cc1	inconclusive: 1.31%	–
CCOC(=O)c1c(C)[nH]c(C(=O)OCCOc2ccccc2C)c1C	inconclusive: 30%	–
CCC(C)C(=O)Nc1cc(C(=O)OC)ccc1C(=O)OC (centres undefined)	inconclusive: 10.9%	–
COc1cccc(-n2nc(C#N)c(Cl)cc2=O)c1	inconclusive: 29.3%	–
CCOC1Cc2ccccc2N(C(N)=O)c2ccccc21 (centres undefined)	inconclusive: 13.8%	–

Structure (SMILES)	activity change, negative = inhibition	Potency
Cc1ccc(NC(=O)CN(C)C(=O)CSc2nnc(NC(C)C)s2)cc1	inconclusive: -1.95%	–
N#Cc1c(SCc2cccc(Cl)c2)sc(C(=O)c2ccccc2)c1N	–	inconclusive: 10.3 µM [rising, partial curve, poor fit]
CC(OC(=O)c1ccc2c(=O)n3c(nc2c1)CCC3)C(=O)NC1CCCCC1C (centres undefined)	inactive	–
CCOc1ccc2c(c1)-c1c(ssc1=S)C(C)(C)N2C(=O)CSC1=NCCS1	inconclusive: -7.2%	–
Cn1ccnc1SCC(=O)n1c2c(c3ccccc31)CCCC2	inactive	–
CC(C)[C@H](NS(=O)(=O)c1ccccc1)C(=O)OCC(=O)N1N=C(c2ccc(Cl)cc2)CC1c1ccco1 (some centres undefined)	inconclusive: 0.698%	–
Nc1ccccc1C(=O)/C=C/c1ccc2c(c1)OCO2	–	inconclusive: 18.4 µM [falling, single point]
O=C(Nc1ccc(F)c(F)c1)c1ccc2c(c1)OCO2	inconclusive: -16.4%	–
CC(=O)NC1=C(Nc2ccc(N(C)C)cc2)C(=O)c2ccccc2C1=O	inactive	–
Fc1ccc(-n2ncc3c(NCCCN4CCOCC4)ncnc32)cc1	inconclusive: 18.4%	–
COc1ccc(N2CCN(C(=O)c3cccc(N4C(=O)C5CC=CC(C)C5C4=O)c3)CC2)cc1 (centres undefined)	inconclusive: -13.2%	–
Cc1ccc(C(=O)Nc2ccc(S(=O)(=O)N3CCOCC3)cc2)cc1C	inconclusive: 4.67%	–
Cc1nn2c(c1-c1ccccc1)N=C(c1ccco1)CC2c1ccccc1 (centres undefined)	inconclusive: -1.67%	–
Cc1cccc(-n2c(C)cc(C(=S)N3CCOCC3)c2C)c1C	–	inconclusive: 11.2 µM [falling, partial curve, poor fit]
Cc1c(Cl)cccc1NC(=S)NN1CCOCC1	inconclusive: -4.37%	–
C1=C2C[N+]3(CCCC3)CC2Cc2ccc3ccccc3c21 (centres undefined)	inconclusive: 11.4%	–
COc1ccc(S(=O)(=O)N2CCOCC2)cc1NC(=O)CSc1nnc(N)s1	inactive	–
CCOC(=O)c1cc(-c2ccccc2C)nn1Cc1cc(CC)no1	–	inconclusive: 32.6 µM [falling, single point]
O=C(N/N=C/c1c(Cl)nc2ccccn2c1=O)c1cccnc1	inconclusive: 8.16%	–
Cc1cc(C(=O)CN2C(=O)c3ccccc3C2=O)c(C)n1Cc1cccs1	inconclusive: 17.4%	–
Fc1ccc(NC(=S)Nc2cc(-c3ccccc3)[nH]n2)cc1Cl	inconclusive: -20.2%	–

4 entries picked at random from the list so far, as already listed:
Structure (SMILES)	activity change, negative = inhibition	Potency
O=C(N/N=C/c1c(Cl)nc2ccccn2c1=O)c1cccnc1	inconclusive: 8.16%	–
C1=C(c2cc3ccccc3cn2)CCCC1	inconclusive: -0.834%	–
CN(C(=O)CC(NC(=O)c1ccccc1)(c1ccccc1)c1ccccc1)c1ccccc1	inconclusive: -6.28%	–
Cc1ccc2nc(-c3cccnc3)cc(C(=O)N3CCN(c4ccc([N+](=O)[O-])cc4)CC3)c2c1	inactive	–

Later entries.

Structure (SMILES)	activity change, negative = inhibition	Potency
O=C(CCCOc1ccccc1)NC(=S)Nc1ccccc1	–	inconclusive: 1 µM [falling, full curve, poor fit]
CC1CCN(C(=O)c2ccc3c(c2)NC(=O)/C(=C/c2ccccc2)S3)CC1	inactive	–
CCOC(=O)c1nc2ccccc2s1	inconclusive: -2.1%	–
O=C(c1ccccc1)n1ccc(-c2cnc(-c3ccccc3)s2)n1	–	inconclusive: 18.4 µM [falling, single point]
Cc1nc2sc(C(c3ccco3)N3CCN(c4ccccc4F)CC3)c(O)n2n1 (centres undefined)	inactive	–
CC(NCc1ccc([N+](=O)[O-])cc1)C1COc2ccccc2O1 (centres undefined)	inconclusive: 4.93%	–
COc1ccc2cc(CN(CC3COCCO3)S(=O)(=O)c3ccccc3)c(=O)[nH]c2c1 (centres undefined)	inactive	–
Cc1cc(C)nc(SCC(=O)N/N=C\C(Br)=C\c2ccccc2)n1	inconclusive: 4.17%	–
CC(=O)NCCc1nc2ccccc2n1CCOc1cccc(C)c1	inconclusive: -16.3%	–
COc1ccc(-c2cc(C(=O)Nc3ccc(O)cc3)c3ccccc3n2)cc1OC	inactive	–
O=C(c1cc(COc2c(F)cccc2F)on1)N1CCSCC1	inconclusive: -13.8%	–
O=c1oc(CCCO)cc2ccc(C#Cc3ccsc3)cc12	–	inconclusive: 29.1 µM [falling, single point]
CN1/C(=C\C=N\NC(=O)c2cccnc2)C(C)(C)c2ccccc21	–	inconclusive: 25.1 µM [falling, single point]
COc1ccc(C)cc1NC(=O)c1nn(C)cc1Br	–	inconclusive: 10 µM [falling, partial curve, poor fit]
COc1c(Br)cc(Br)cc1C(=O)O	inconclusive: -8.2%	–
Cc1ccc(S(=O)(=O)N2CCOCC2)cc1C(=O)Nc1cccc(S(=O)(=O)N2CCCC2)c1	–	inconclusive: 0.0891 µM [falling, full curve, poor fit]
CCc1ccc(OC(C)C(=O)Nc2ccc(S(=O)(=O)Nc3nccs3)cc2)cc1 (centres undefined)	inconclusive: 12.9%	–
Cc1ccc(S(=O)(=O)c2c(N)n(NC(=O)c3ccccc3C)c3nc4ccccc4nc23)cc1	–	inconclusive: 16.4 µM [rising, single point]
c1cnc(SCCCOc2ccc3ccccc3c2)nc1	inconclusive: 20.9%	–
COc1ccc(CCNS(=O)(=O)c2ccc(Br)s2)cc1	inactive	–
COc1ccc(Cc2nnc(SCC(=O)Nc3ccc(C)cc3C)[nH]c2=O)cc1	inactive	–

Structure (SMILES)	activity change, negative = inhibition	Potency
CC(=O)c1ccc(C(C)(C)c2ccc(C(C)=O)s2)s1	inactive	–
CCOC(=O)C1CCCN(c2nc(C)nc3c2oc2ccccc23)C1 (centres undefined)	inactive	–
O=C(CN(C1CCCCC1)S(=O)(=O)c1ccccc1)NCc1cccnc1	inactive	–
C=CCNCCCCOc1ccccc1-c1ccccc1	inconclusive: -5.25%	–
Cc1ccc(C)c(OCCCNC2CCCC2)c1C	inactive	–
Cn1c(=O)c2c(nc(CN3CCC(C(N)=O)CC3)n2Cc2ccccc2F)n(C)c1=O	inconclusive: 3.39%	–
O=S(=O)(c1ccccc1C(F)(F)F)N1CCN(CC(O)COc2ccccc2F)CC1 (centres undefined)	inconclusive: -9.16%	–
Cc1c(O)ccc2c(CN3CCN(Cc4ccccc4)CC3)cc(=O)oc12	inactive	–
CC(=O)N1CCN(C(=O)CCc2nnc(CCCCc3ccccc3)o2)CC1	inconclusive: -0.613%	–
Cn1nnc2cc(C(=O)Nc3ccccc3)ccc21	inactive	–
CN(c1ccccc1)S(=O)(=O)c1cccc(NC(=O)c2ccc(Cl)c([N+](=O)[O-])c2)c1	inconclusive: -1.22%	–
CCOC(=O)c1c(-c2ccccc2)nc2ccc(Cl)cn12	–	inconclusive: 5.62 µM [rising, full curve, poor fit]
C/C(Cc1ccccc1)=N\NC(=O)c1ccc(F)cc1	–	inconclusive: 1.84 µM [falling, full curve]
O=C(N1CCOCC1)N1CCCN(C(=O)N2CCOCC2)CC1	inconclusive: 4.43%	–
Cc1ccc(CNC(=O)CSCc2cccc(F)c2)cc1	inconclusive: 5.07%	–
CC(C)Cn1cnc2c1c(=O)n(CC(O)c1ccccc1)c(=O)n2CC(C)C (centres undefined)	–	inconclusive: 2.31 µM [rising, full curve, poor fit]
CCC1=Nc2cc(C(=O)NCC3CCCO3)ccc2Sc2ccc(Br)cc21 (centres undefined)	–	inconclusive: 8.91 µM [falling, partial curve]
Cc1ccc2c(c1)C1CN(C)CCC1N2C(=S)NC(=O)c1ccc(Br)cc1 (centres undefined)	–	inconclusive: 11.2 µM [falling, single point]
CC1=CC(C)(C)Nc2ccc(OC(=O)CCN3C(=O)c4ccccc4C3=O)cc21	inconclusive: 5.09%	–
COc1ccc(NC(=O)C2CC(c3c(F)cccc3Cl)=NO2)cc1 (centres undefined)	inactive	–
CN(C)c1ccc(/C=N/NS(=O)(=O)c2ccc(Br)cc2)cc1	inconclusive: -27.9%	–
